The record followed here is publication doi:10.1101/2025.10.30.685566.

Sequences of proteins named here, by UniProt entry; tags and fusion partners are left off.
UniProt Q5T5P2: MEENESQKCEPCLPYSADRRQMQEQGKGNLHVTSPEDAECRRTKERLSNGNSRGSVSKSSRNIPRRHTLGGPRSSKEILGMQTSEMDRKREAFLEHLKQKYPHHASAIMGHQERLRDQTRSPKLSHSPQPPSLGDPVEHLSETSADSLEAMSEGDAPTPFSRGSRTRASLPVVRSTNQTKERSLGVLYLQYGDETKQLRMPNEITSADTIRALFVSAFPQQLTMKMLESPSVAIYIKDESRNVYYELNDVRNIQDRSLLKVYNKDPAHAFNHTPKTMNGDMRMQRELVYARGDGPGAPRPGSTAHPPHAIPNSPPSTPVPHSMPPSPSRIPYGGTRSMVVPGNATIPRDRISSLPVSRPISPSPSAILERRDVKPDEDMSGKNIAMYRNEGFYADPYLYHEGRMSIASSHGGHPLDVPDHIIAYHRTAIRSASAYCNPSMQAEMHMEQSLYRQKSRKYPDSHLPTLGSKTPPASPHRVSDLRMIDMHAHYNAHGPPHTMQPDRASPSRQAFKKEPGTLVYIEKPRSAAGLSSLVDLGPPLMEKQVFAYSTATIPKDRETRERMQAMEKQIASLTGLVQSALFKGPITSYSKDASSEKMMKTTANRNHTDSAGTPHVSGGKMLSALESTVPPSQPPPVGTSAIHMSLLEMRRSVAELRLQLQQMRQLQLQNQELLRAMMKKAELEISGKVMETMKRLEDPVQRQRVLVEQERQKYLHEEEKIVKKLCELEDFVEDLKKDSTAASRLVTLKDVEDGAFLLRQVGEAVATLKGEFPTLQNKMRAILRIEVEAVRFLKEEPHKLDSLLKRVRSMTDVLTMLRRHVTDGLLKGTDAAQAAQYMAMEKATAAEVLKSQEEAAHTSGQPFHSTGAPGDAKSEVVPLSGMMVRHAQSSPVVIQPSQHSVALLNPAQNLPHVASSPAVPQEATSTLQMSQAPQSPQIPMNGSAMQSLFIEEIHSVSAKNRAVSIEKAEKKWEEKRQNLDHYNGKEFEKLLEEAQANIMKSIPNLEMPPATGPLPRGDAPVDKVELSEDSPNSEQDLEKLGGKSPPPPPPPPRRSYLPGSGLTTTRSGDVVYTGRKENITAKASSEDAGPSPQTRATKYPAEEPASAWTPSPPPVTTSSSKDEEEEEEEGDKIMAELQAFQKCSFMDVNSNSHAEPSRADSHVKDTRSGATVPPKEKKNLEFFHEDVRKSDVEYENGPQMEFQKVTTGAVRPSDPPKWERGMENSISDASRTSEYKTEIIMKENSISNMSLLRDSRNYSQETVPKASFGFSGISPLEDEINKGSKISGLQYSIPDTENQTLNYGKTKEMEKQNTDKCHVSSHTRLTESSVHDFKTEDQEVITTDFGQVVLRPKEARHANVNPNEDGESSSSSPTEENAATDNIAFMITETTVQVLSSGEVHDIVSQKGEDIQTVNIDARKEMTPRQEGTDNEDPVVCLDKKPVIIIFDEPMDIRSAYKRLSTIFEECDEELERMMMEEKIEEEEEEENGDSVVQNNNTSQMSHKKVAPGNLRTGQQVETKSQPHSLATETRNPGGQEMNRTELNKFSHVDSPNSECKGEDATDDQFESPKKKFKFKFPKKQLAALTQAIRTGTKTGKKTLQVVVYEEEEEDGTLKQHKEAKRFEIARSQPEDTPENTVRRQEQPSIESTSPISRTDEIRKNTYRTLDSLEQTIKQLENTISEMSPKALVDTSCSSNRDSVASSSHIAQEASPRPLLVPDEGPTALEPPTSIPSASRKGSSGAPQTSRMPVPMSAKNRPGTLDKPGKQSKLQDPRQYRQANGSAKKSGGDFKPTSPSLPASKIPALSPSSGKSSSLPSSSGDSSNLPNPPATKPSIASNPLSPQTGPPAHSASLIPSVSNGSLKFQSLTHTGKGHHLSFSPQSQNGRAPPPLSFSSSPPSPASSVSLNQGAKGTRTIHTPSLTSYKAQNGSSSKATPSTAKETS

The target in this test is GFP-KIAA1217 (human) (UniProt Q5T5P2). Kind of test: co-IP.

Results are given in words; binding and its absence hold for the method and conditions named. In cells and extracts the contact can be indirect. Some entries that bind do so weakly or less than the wild type. Tags and fused reporters may be left off the sequences shown.

B1: p140Cap-Flag (protein, UniProt Q9C0H9 1-1183)
chain: MGNAPSQDPERSSPPMLSADDAEYPREYRTLGGGGGGGSGGRRFSNVGLVHTSERRHTVIAAQSLEALSGLQKADADRKRDAFMDHLKSKYPQHALALRGQQDRMREQPNYWSFKTRSSRHTQGAQPGLADQAAKLSYASAESLETMSEAELPLGFSRMNRFRQSLPLSRSASQTKLRSPGVLFLQFGEETRRVHITHEVSSLDTLHALIAHMFPQKLTMGMLKSPNTAILIKDEARNVFYELEDVRDIQDRSIIKIYRKEPLYAAFPGSHLTNGDLRREMVYASRESSPTRRLNNLSPAPHLASGSPPPGLPSGLPSGLQSGSPSRSRLSYAGGRPPSYAGSPVHHAAERLGGAPAAQGVSPSPSAILERRDVKPDEDLASKAGGMVLVKGEGLYADPYGLLHEGRLSLAAAAGDPFAYPGAGGLYKRGSVRSLSTYSAAALQSDLEDSLYKAAGGGGPLYGDGYGFRLPPSSPQKLADVAAPPGGPPPPHSPYSGPPSRGSPVRQSFRKDSGSSSVFAESPGGKTRSAGSASTAGAPPSELFPGPGERSLVGFGPPVPAKDTETRERMEAMEKQIASLTGLVQSALLRGSEPETPSEKIEGSNGAATPSAPCGSGGRSSGATPVSGPPPPSASSTPAGQPTAVSRLQMQLHLRGLQNSASDLRGQLQQLRKLQLQNQESVRALLKRTEAELSMRVSEAARRQEDPLQRQRTLVEEERLRYLNDEELITQQLNDLEKSVEKIQRDVSHNHRLVPGPELEEKALVLKQLGETLTELKAHFPGLQSKMRVVLRVEVEAVKFLKEEPQRLDGLLKRCRGVTDTLAQIRRQVDEGVWPPPNNLLSQSPKKVTAETDFNKSVDFEMPPPSPPLNLHELSGPAEGASLTPKGGNPTKGLDTPGKRSVDKAVSVEAAERDWEEKRAALTQYSAKDINRLLEETQAELLKAIPDLDCASKAHPGPAPTPDHKPPKAPHGQKAAPRTEPSGRRGSDELTVPRYRTEKPSKSPPPPPPRRSFPSSHGLTTTRTGEVVVTSKKDSAFIKKAESEELEVQKPQVKLRRAVSEVARPASTPPIMASAIKDEDDEDRIIAELESGGGSVPPMKVVTPGASRLKAAQGQAGSPDKSKHGKQRAEYMRIQAQQQATKPSKEMSGSNETSSPVSEKPSASRTSIPVLTSFGARNSSISF
As for B1, the binding result is listed as “binds”.
